Experimental data taken from PMC5742674.
No constants are given. Whether binding was seen depends on the method and setting. Binding seen in cells or lysates may run through a third protein.

By UniProt entry, the sequences of proteins in these tests, tags left out.
UniProt O88597: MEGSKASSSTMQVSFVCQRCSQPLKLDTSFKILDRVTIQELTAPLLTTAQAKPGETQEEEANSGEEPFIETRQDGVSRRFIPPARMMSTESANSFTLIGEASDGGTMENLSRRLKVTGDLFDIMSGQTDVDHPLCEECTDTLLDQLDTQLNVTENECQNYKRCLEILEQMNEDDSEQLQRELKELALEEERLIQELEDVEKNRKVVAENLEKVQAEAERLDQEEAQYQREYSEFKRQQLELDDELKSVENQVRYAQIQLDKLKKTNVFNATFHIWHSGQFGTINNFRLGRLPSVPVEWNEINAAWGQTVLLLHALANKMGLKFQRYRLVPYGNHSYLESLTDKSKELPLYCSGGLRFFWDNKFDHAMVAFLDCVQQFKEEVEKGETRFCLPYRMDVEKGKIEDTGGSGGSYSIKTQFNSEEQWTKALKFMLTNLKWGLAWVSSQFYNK

Target: T1, toll‐like receptor 3 (TLR3) (mouse (endogenous in heart tissue)) (UniProt Q99MB1)
T1 sequence: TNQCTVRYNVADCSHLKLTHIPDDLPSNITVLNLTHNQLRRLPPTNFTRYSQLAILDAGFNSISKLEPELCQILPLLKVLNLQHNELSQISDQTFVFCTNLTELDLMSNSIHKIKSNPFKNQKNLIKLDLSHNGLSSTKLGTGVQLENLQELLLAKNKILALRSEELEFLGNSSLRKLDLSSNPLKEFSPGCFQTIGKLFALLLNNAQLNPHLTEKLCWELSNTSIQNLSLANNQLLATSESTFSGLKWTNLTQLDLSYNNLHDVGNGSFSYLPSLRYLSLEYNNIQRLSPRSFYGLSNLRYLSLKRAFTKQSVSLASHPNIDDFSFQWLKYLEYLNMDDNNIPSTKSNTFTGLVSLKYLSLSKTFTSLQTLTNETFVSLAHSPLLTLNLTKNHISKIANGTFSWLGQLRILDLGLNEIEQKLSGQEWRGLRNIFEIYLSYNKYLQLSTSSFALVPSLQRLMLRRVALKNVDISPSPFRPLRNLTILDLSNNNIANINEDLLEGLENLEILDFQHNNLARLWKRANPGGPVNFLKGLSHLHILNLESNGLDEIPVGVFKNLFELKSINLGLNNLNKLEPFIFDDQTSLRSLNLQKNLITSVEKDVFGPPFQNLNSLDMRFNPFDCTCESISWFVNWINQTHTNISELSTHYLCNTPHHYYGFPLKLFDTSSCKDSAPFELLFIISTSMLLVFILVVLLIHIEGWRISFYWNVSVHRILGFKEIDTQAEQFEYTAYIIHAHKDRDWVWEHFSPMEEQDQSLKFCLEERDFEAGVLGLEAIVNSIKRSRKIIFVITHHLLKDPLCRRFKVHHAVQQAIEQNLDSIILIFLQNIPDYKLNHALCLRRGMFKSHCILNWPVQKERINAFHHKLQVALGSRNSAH
Test: co-IP; mouse heart tissue lysates (RIPA buffer, 300 μg total protein; sham or infarct myocardium, 4 weeks after MI), pre-incubated with isotype IgG, precipitated with 6 μg anti-TLR3 antibody overnight at 4°C and protein G-agarose, then Western blot; IP with isotype IgG as control

- binding: no binding
Substance: beclin‐1 (from UniProt O88597 1-448)
